Test system: norepinephrine and dopamine levels in prefrontal cortex
Test: Microdialysis: modulation of norepinephrine and dopamine levels in cortex
Format: in vivo, rat
Settings: male Wistar rats, masupirdine 3 mg/kg p.o., donepezil or memantine 1 mg/kg s.c.
From the text: Male Wistar rats (240-300 g body weight) were stereotaxically implanted with a microdialysis guide cannula in prefrontal cortex (PFC; AP: +3.2 mm, ML: −0.5 mm, DV: −1.0 mm) under isoflurane anesthesia. […] The rats were allowed to recover individually for four days in a round bottom Plexiglas bowl with free access to feed and water.
Sixteen hours before start of the study, a pre-equilibrated microdialysis probe (4 mm dialysis membrane) was inserted into PFC through the guide cannula. On the day of study, probe was perfused with artificial cerebrospinal fluid (aCSF; NaCl 150 mmol, KCl 3.0 mmol, MgCl2 0.9 mmol, CaCl2. 2H2O 1.7 mmol, pH 6.2) at a flow rate of 1.5 μL/min and a stabilization period of 2 h was maintained. […] Dialysates were stored below −50° C. prior to analysis.
Norepinephrine and dopamine levels in dialysates were quantified using LC-MS/MS method.
Statistical significance was considered at a p value less than 0.05.

**Q.** COc1cc2c(cc1OC)C(=O)C(CC1CCN(Cc3ccccc3)CC1)C2 (centres unmarked) [donepezil] was tested. Which “cortical dopamine levels, AUC of percent change” value did it give?
**A.** 307.79±52.22

**Q.** What about the “cortical norepinephrine levels, AUC of percent change” value of the same compound?
**A.** 333.77±39.77

— patent US12721846B2, “Methods for treating behavioral and psychological symptoms in patients with dementia” (SUVEN LIFE SCIENCES LIMITED, priority 2019, dated 2026)
